In patent US20240301052A1 (LANOVA MEDICINES DEVELOPMENT, published 2024):
Positions count from the first letter of the chain named. No constants are given. Whether binding was seen depends on the method and setting. Some binding calls cover weakened binding; strength is not graded here.

T1: human SLC34A2 (human, UniProt O95436 1-690)
T1 sequence (looked up): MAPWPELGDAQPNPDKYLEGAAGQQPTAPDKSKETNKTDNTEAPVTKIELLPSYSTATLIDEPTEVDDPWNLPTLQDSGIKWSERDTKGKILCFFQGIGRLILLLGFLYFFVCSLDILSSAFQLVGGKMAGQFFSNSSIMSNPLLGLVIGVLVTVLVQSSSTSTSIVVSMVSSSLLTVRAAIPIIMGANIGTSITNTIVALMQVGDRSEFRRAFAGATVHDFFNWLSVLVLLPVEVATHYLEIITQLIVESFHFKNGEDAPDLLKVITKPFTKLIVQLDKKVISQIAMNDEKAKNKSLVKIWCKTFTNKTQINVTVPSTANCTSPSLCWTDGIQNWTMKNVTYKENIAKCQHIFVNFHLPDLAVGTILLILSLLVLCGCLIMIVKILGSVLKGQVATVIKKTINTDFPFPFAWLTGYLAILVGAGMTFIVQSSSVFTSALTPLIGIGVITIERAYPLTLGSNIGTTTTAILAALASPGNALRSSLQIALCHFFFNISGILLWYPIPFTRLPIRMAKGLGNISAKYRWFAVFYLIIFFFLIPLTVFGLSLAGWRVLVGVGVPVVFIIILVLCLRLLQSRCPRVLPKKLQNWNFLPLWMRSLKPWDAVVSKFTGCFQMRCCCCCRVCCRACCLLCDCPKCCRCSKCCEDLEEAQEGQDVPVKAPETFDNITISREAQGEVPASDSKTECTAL

T2: Rhesus SLC34A2 (Rhesus, UniProt F7HDA3 1-690)
T2 construct: whole, on cells
T2 sequence: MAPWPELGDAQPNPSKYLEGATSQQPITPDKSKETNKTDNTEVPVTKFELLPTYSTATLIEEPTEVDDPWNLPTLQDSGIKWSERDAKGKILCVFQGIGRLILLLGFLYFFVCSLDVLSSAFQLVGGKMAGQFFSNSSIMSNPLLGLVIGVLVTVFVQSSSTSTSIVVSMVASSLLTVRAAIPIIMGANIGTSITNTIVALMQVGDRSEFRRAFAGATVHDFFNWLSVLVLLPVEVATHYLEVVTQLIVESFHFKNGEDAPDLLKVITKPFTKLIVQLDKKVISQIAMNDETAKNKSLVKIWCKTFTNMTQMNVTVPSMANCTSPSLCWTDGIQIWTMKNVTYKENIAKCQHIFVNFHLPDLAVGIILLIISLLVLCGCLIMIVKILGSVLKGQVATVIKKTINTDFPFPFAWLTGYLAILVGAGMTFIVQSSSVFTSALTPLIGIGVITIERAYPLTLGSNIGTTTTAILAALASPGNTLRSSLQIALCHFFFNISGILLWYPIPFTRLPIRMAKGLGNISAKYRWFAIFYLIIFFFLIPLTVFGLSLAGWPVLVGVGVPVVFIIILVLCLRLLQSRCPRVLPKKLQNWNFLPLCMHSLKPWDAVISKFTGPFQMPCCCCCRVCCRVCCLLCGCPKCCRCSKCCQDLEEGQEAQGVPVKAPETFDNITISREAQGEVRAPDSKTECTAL

B1: xi90G10H7 hIgG1 (antibody, V domains shown)
VH: QVQLQQPGAVLVKPGASVKMSCKASGYTFTSYIIHWVKQTPGQGLEWVGAIYPGNGDASSIQKFKGKATLTVDKSSSTAYMQLSSLTSADSAVYYCARGHYYGSAAWFAYWGQGTLVTVSA
VL: DILLTQSPAILSVSPGERVSFSCRASQNIGTGIHWYQQRTNGSLRLLIKYASESISGIPSRFSGSGSGTDFTLSINSVESEDIADYYCQQSNSWPLTFGAGTKLELK
notes: chimeric, hIgG1
B2: 30H9B8F9 VH_P1/VL hIgG1 (antibody, V domains shown)
VH: QVQLQQPGAELVKPGASVKMSCKTSGYTFTTNNMHWVKQTPGQGLEWIGAIYPGSGATAYNQKFKGKATLTADKSSSTAYMQLSSLTSEASAVYYCARGMYGHGAMDYWGQGTSVIVSS
VL: DIVMTQSHKFMSRSVGDRVRITCKASQDVGTAVAWYQQKPGQSPKLLIYWATTRHSGVPDRFTGSGSGTDFIFTISNVQSEDLADYFCQQYSSNPLTFGAGTKLELK
notes: PTM-derisked chimeric, hIgG1; that P1 is the N=>S version follows from the humanized .p1 chains; also called 30H9B8F9.p1 hIgG1
B3: 62G10E4G8 VH_P3/VL hIgG1 (antibody, V domains shown)
VH: QVQLQQSGAEVVKPGASVKMSCKASGYTFPSYITHWVKQTPGQGLEWIGAIYPGNADTSYIQKFKGKATLTADKSSSTAYMQLSSLTSEDSAVYYCARGTYGTSAWFTYWGQGTLVTVSA
VL: DIVLTQSPATLSVTPGDSVSLSCRARQNIGNNLYWYQQKSHESPRLLIKYASQSISGIPSRFSGSGSGTDFTLTINSVETEDFGVYFCQQSFSWPLTFGAGTKLELK
notes: PTM-derisked chimeric, hIgG1; that P3 is the NA version follows from the humanized .p3 chains; also called 62G10E4G8.p3 hIgG1
B4: 63A11D5B4 VH_P1/VL hIgG1 (antibody, V domains shown)
VH: QVQLQQPGAELVKPGASVKMSCRTSGYTFITYNMHWVKQTPGQGREWIGAIYPGSGDTSYNQKFKGKATLTADKSSSTAYMQLNSLTSEDSAVYYCSISTIITTGAVDYWGQGTSVTVAS
VL: DIVMTQSHKFMSTSVGDRVSITCKASQDVGTAVAWYQQKAGQSPKLLIYWTSTRHTGVPDRFTGSGSGTDFTLIIRSLQSEDLADYFCQQYSRIPLTFGSGTKLEIK
notes: PTM-derisked chimeric, hIgG1; that P1 is the SG version follows from the humanized .p1 chains; also called 63A11D5B4.p1 hIgG1
B5: 91C9F1.p1 hIgG1 (antibody, V domains shown)
VH: EVQLQQSGPELVKPGTSVKISCKTSGFFFTEYIIHWVKQSHGRSLEWIGGIIPNNDVTNYKQNFRGKAALTADKSSNTAYMELRSLTSEDSAVYYCARWRNAYYSAMDSWGQGTSVTVSS
VL: DIVVTQSHKFMSTSLGDRVSITCTASQDVGTAVAWYQQKPGHSPKLLIYWASTRHTGVPERFTGSGSGTDFTLTITNVQSEDLADYFCQQYRTSPLTFGVGTKLELK
notes: PTM-derisked chimeric, hIgG1; also called 91C9F1.pl hIgG1
B6: xi95H11A1D8VH-1 hIgG1 (antibody, V domains shown)
VH: B2 VH with S55N
VL: B3 VL with H41N
notes: chimeric, hIgG1; the suffix VH-1 is not explained

biological target: T1, human SLC34A2; assay: FACS, RMG-1 cells

How did the binding turn out when B1 was run?
Its binding is “binds”.

biological target: T1, human SLC34A2; assay: FACS, OVCAR3 cells

B2 was tested. Which binding did it give?
The binding was “binds”.

B3 was tested. Which binding did it give?
Its binding is “binds”.

Which binding does the source give for B4 here?
The binding was “binds”.

B5 was tested. Which binding did it give?
Its binding is “binds”.

biological target: T1, human SLC34A2; assay: FACS, HEK293/human SLC34A2 cells

Which binding does the source give for B2 here?
The binding was “binds”.

Which binding does the source give for B3 here?
Its binding is “binds”.

For B4, which binding is on record?
Its binding is “binds”.

How did the binding turn out when B5 was run?
The binding was “binds”.

biological target: T2, Rhesus SLC34A2; assay: FACS, HEK293/Rhesus SLC34A2 cells

B2 was tested. Which binding did it give?
Its binding is “binds”.

B3 was tested. Which binding did it give?
Its binding is “binds”.

B4 was tested. Which binding did it give?
The binding was “binds”.

How did the binding turn out when B5 was run?
The binding was “binds”.

biological target: T1, human SLC34A2; assay: FACS, OVCAR3 and HEK293/human SLC34A2 cells

How did the binding turn out when B1 was run?
The binding was “binds”.

With B6 as the binder, how does the binding read?
Its binding is “binds”.
